PMC8575317

Sequences of proteins named here, by UniProt entry; tags and fusion partners are left off.
UniProt Q8MQV3: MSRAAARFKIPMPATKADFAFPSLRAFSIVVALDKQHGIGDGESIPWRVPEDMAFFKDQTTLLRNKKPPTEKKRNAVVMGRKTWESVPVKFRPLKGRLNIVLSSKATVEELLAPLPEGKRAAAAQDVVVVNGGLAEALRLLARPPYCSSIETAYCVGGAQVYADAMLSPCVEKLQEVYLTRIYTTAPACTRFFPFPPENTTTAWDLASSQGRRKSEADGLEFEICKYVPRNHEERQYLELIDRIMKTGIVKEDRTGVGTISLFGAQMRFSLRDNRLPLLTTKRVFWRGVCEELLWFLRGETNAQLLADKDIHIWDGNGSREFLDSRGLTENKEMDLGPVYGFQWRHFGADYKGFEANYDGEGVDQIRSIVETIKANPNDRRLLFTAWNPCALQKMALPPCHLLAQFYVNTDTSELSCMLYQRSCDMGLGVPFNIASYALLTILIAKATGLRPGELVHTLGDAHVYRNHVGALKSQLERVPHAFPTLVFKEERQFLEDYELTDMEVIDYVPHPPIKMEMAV

These molecules were tested against HA-tagged L. infantum DRBD2 (L. infantum) (UniProt E9AHW1) (assay: affinity purification with mass spectrometry; anti-HA magnetic beads, HA-tagged RBP23 or DRBD2 from L. infantum cytoplasmic extracts (nitrogen cavitation), 1 h at 4 C, washed with PBS, not RNase treated; control: extracts of non-transfected cells; two independent experiments).

binding | Molecule
binds | ATP-dependent DEAD/H RNA helicase LINF_220021200 (from UniProt A4I009) (enzyme)
binds | ATP-dependent RNA helicase HEL67 (from UniProt A4I7K4) (enzyme)
binds | CCCH-Zinc finger 31 (from UniProt A4ICR0)
binds | CCCH-Zinc finger 39 (from UniProt A4HY52)
binds | CCCH-Zinc finger 40 (from UniProt A4HY39)
binds | Guide RNA associated protein 1 (from UniProt A4I9B3)
binds | Guide RNA associated protein 2 (from UniProt A4HZU2)
binds | Inosine-5'-monophosphate dehydrogenase (from UniProt A4HYI5) (enzyme)
binds | Kinetoplast polyadenylation factor 1 (from UniProt A4HXM7)
binds | LINF_210009700, RNA-binding protein with NTF2 domain (from UniProt A4HZ42)
binds | Mitochondrial RNA binding complex 1 subunit KRBP72/MRB1590 (from UniProt A4I1K0)
binds | Mitochondrial RNA binding complex 1 subunit RESC11B/MRB4150 (from UniProt A4I6F7)
binds | Mitochondrial RNA binding protein 1 (from UniProt A4I2R2)
binds | Mitochondrial RNA binding protein 2 (from UniProt A4HU34)
binds | PAS-domain containing phosphoglycerate kinase (from UniProt A4I628) (enzyme)
binds | Poly(A) Specific Ribonuclease Subunit PAN3 (from UniProt A4I7N9)
binds | Polyadenylation mediator complex 1 (from UniProt A4HYT7)

binding | Molecule
binds | Polyadenylation mediator complex 3 (from UniProt A4HZ59)
binds | Pumilio protein 6 (from UniProt A4I8Y0 1-837)
binds | RGG-containing protein 1 (from UniProt A4I5A9)
binds | RGG-containing protein 2 (from UniProt A4I8P4)
binds | RNA editing mediator complex protein 1 (from UniProt A4IDQ5)
binds | RNA editing mediator complex protein 5 (from UniProt A4I6F8)
binds | RNA-binding protein 12 (from UniProt A4HXT4)
binds | RNA-binding protein 43 (from UniProt A4I171)
binds | Skp1 (S-phase kinase-associated protein 1)-like (from UniProt A4HSG7)
binds | Three RRMs containing protein 1 (from UniProt A4I2Y0)
binds | Three RRMs containing protein 2 (from UniProt A4I5E2)
binds | gRNA binding complex subunit 5 (from UniProt A4I8Z1)
binds | gRNA binding complex subunit 6 (from UniProt A4HTQ0)
binds | mRNA cap guanine-N7 methyltransferase (from UniProt A4HUW9) (enzyme)
binds | tRNA (Uracil-5-)-methyltransferase LINF_200021600 (from UniProt A4HZ00) (enzyme)
binds | ATP-dependent phosphofructokinase (enzyme, UniProt A4I4W5 1-486) METRHHLNTKMVPSYQAPLSKVTAADLTVERLPGCKYMNPSKKHILREEYRDKVEHIMYDPRPQEDLDAEYPVSCNKLVCELAAARKHLHFNPSETSIGIVTCGGICPGLNDVIRSITLTGIISYRVKRVVGFRYGYWGLSKEGSKTAIELSRSDVRQIHRFGGTILGSSRGPQNPKEMVDTLVRMKINILFTVGGDGTQRGALTIYEEAKRRGENIAVFGVPKTIDNDLAFSHRTFGFQTAVEQAVNAVRAAYAEAVSLNYGVGIVKLMGRESGFIAAQTTVASAQANICLIPENPLPKETVMRLIERRLQQSRNCVIVVAEGFGQDWETGTGGHDASGNKKLVDIGFILKKEVESWLRANKEKFPQGTVKYIDPSYMIRACPPSSNDALFCTNLATLAVHEAMAGATGCIISMRYNNYILVPIKAATSVRRVVSLRGALWRQVREITVGLSDDVQQWNEQDLRRHLESLNVERERIIARLASKV

Molecule | binding
Mitochondrial edited mRNA stability factor 1 (from UniProt A4I866) | binds
Mitochondrial edited mRNA stability factor 2 (from UniProt A4I377) | binds
Mitochondrial edited mRNA stability factor 3 (from UniProt E9AHZ5) | binds
Monooxygenase (from UniProt A4HT15) (enzyme) | binds

Each molecule was assayed against HA-tagged L. infantum RBP23 (L. infantum) (UniProt A4HXC9) in the same assay as above.

binding | Molecule
binds | CCR4-NOT complex subunit 10 (from UniProt A4IE22)
binds | CCR4-NOT complex subunit 11 (from UniProt A4I038)
binds | CCR4-associated factor (from UniProt A4I022)
binds | Dihydrofolate reductase-thymidylate synthase (from UniProt Q8MQV3 1-520) (enzyme)
binds | Dynamin-1-like protein (from UniProt A4I4S9)
binds | EIF4E1-interacting protein 2 (from UniProt A4I8Q2)
binds | Eukaryotic translation initiation factor 3 G (from UniProt A4IA46)
binds | Eukaryotic translation initiation factor 4E1 (from UniProt A4I2V4)
binds | Eukaryotic translation initiation factor 4E4 (from UniProt A4I573)
binds | LINF_210020800, PPR domain protein (from UniProt A4HZC4)
binds | Mitochondrial-associated protein MRB1AP (from UniProt A4HV02)
binds | PAB1-binding protein (from UniProt A4HUM3)
binds | Poly A polymerase, regulatory subunit (from UniProt E9AH23)
binds | Purine-Responsive Element Binding Protein 1 (from UniProt A4I6R7)
binds | Serine-threonine kinase receptor-associated protein (from UniProt A4I2S5)
binds | Skp1 (S-phase kinase-associated protein 1)-like (from UniProt A4HSG7)
binds | Three RRMs containing protein 2 (from UniProt A4I5E2)
binds | tRNA (Guanine-1)-methyltransferase LINF_300036300 (from UniProt A4I5Y8) (enzyme)
binds | Poly(A)-binding protein 1 (protein, UniProt A4IC57 1-560) MAAAVQEAAAPVAHQPQMDKPMQIASIYVGDLDAAINEPQLVELFKPFGTILNVRVCRDIITQRSLGYGYVNFDNHDSAEKAIESMNFKRVGDKCVRLMWQQRDPALRYSGNGNVFVKNLEKDVDSKSLHDIFTKFGSILSCKVMQDEEGKSRGYGFVHFKDETSAKDAIVKMNGAADHASEDKKALYVANFIRRNARLAALVANFTNVYIKQVLPTVNKEVIEKFFAKFGGITSAAACKDKSGRVFAFCNFEKHDDAVKAVEAMHDHHIDGITAPGEKLYVQRAQPRSERLIALRQKYMQHQSLGNNLYVRNFDPEFTGADLLELFKEYGEVKSCRVMVSESGASRGFGFVSFSNADEANAALREMNGRMLNGKPLIVNIAQRRDQRYTMLRLQFQQRLQMMMRQMHQPMPFVGGQGRPMRGRGGRQQLGGRAQGHPMPMPSPQQPQAPAQPQGFATPSAVGFVQATPKHSPGDVPETPPLPPITPQELESMSPQEQRAALGDRLFLKVYEIAPELAPKITGMFLEMKPKEAYELLNDQKRLEERVTEALCVLKAHQTA
binds | Gamma-glutamylcysteine synthetase (enzyme, UniProt A4HY37 1-687) MGLLTTGGAPIQWGTDANRKAIPHVREHGIQQFLNVFKNKKDLHGMPFLWGEELEHQLIQIHDNTVTLSTESAMVMNKLRARPDNCAVWNPEYGSFMIESTPDHPYSLSVESLDSVQDNIERRYDMLNKEAPPGVVGTTFVTFPLMGQGNFVHCSDKSSPYSQSLFVPDACINQTHPRFANLTANIRLRRGQKVCVLVPLYMDSRTMQDTVDPQLNIDLTPHNKDICYSMRENGRNMTDELYAETDASAALLVPSSSLDPREDYPVTETLKQLFTPATLYYYAQYFTGQRREHMQERYNACNCPATLVSHPCIYMDCMAFGMGNSALQVTMQLDNIHEARHVYDQLAILCPAFLALSSATPFQKGLLCDTDVRWLTIAGAVDDRRVEEVPRILKSRYDSISVFISDRTENLEEFNDSQIAINRSYCELLKDSGVDVRLANHIAHLFIRDPLVIYDKMIDIDDTTHTEHFDNIQSTNWQTVRFKPPPIGNDIGWRVEFRVMDIQPTPFENAAFAVFIPLLTKAIITYKPCFYTKISIVDENMGRAHRINPCGEQYIMRKDIFADKCTASDEETARMSIDEIFNGKEGGFYGLIPLVCRYLDDEGKRSPLVNSYLKFLSMRASGRIPTPAQYMRKFVTTHPDYKHDSRLTDSIARDLVQRMHGLAANQIHDDDYLPMSFFTADAVESTK

Molecule | binding
LINF_080013100, BAR domain protein (from UniProt A4HTM7) | binds
LINF_260021000, RING-zinc finger protein (from UniProt A4I293) | binds

No constants are given. Whether binding was seen depends on the method and setting. Binding seen in cells or lysates may run through a third protein. These calls come from enrichment with a bait or labelling near it, and not all partners need be listed.
